In publication PMC7791875:
No constants are given. Whether binding was seen depends on the method and setting. In cells and extracts the contact can be indirect. Some results given as binding are weak or reduced against the parent protein; the word gives no strength.

Amino acid sequences for entries named in this document (tags omitted). A change or cut given only in a name is not applied to a line headed by its entry. Residues count along the entry.
UniProt Q9HC29: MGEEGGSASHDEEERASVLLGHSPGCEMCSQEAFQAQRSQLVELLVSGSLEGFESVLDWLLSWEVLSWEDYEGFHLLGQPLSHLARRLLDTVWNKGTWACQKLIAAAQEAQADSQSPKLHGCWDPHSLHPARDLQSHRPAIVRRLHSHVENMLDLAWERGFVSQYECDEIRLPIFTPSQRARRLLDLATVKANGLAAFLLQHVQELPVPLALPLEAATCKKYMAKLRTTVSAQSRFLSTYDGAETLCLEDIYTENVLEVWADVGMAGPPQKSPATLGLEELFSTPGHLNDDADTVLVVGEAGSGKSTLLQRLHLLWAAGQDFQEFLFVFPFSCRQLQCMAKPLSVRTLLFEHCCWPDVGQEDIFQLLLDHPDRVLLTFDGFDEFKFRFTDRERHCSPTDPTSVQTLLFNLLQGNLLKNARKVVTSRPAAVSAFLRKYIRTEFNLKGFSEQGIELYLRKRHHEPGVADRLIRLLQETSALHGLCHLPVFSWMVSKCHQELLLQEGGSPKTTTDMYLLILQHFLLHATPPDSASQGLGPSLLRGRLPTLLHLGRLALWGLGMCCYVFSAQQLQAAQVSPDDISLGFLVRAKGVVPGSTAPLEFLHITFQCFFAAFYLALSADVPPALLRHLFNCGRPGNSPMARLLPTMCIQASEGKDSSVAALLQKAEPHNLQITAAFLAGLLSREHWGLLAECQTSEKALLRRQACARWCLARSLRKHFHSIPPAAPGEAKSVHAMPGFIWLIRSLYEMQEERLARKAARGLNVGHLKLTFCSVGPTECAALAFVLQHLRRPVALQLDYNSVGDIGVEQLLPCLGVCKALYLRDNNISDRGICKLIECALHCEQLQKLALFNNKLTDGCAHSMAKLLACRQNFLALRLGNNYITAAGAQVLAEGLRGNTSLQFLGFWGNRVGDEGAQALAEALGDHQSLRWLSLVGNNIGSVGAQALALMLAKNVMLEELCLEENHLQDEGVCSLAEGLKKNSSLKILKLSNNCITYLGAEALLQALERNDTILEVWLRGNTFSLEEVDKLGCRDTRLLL
NOD2 C-terminal LRR domain (amino acids 619-1040): residues 619-1040 of Q9HC29
UniProt P48678, residues 1-647: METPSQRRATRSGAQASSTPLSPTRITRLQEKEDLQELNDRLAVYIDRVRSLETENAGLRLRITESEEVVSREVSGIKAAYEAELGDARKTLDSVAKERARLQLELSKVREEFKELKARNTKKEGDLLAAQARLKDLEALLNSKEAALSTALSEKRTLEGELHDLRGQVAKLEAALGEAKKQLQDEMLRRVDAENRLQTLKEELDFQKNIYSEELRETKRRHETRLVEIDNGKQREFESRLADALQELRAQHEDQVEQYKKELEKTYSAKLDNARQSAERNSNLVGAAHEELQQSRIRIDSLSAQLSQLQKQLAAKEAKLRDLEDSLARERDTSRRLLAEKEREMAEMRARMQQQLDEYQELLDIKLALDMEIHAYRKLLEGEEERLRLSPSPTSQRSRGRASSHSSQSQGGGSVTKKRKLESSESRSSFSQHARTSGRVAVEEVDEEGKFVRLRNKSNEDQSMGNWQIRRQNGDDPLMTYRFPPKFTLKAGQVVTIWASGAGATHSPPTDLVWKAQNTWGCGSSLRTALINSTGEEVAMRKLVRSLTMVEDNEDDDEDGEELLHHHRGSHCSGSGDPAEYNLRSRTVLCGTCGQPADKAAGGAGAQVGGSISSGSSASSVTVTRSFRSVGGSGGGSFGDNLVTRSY
UniProt P02545, residues 1-646: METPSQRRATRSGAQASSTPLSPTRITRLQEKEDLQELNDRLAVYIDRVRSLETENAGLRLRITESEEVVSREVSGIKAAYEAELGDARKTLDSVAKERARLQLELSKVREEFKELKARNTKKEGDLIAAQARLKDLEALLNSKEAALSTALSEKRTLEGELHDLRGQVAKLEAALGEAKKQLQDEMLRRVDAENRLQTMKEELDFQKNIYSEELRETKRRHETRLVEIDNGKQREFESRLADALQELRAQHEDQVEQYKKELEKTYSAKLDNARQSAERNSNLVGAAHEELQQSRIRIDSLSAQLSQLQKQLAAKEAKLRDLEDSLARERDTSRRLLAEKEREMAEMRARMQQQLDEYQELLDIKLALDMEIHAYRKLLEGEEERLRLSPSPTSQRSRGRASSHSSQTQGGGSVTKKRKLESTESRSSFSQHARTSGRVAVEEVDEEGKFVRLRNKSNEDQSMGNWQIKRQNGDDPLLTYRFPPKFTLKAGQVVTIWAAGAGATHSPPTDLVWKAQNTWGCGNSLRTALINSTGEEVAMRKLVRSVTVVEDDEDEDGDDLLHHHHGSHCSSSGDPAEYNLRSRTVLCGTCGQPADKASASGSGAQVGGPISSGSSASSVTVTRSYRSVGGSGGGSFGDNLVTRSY

Key:
[1] = target: GST-NOD2 (UniProt Q9HC29); assay: pull-down; GST pull-down with purified GST-NOD2; source of lamin A/C not told in the text shown
[2] = target: NOD2 C-terminal LRR domain (amino acids 619-1040) (UniProt Q9HC29); assay: as above
[3] = target: lamin A/C, endogenous in primary hepatocytes (mouse (endogenous in primary mouse hepatocytes)) (UniProt P48678); assay: co-IP; bidirectional co-IP of endogenous proteins in primary hepatocytes

binding [1]	binding [2]	binding [3]	Molecule
binds	binds	–	lamin A/C (in the GST pull-down assay) (from UniProt P02545 1-646)
–	–	binds	NOD2 (nucleotide-binding oligomerization domain 2), endogenous in primary hepatocytes (protein, UniProt Q8K3Z0 1-1020) MRSSCCDMCSQEEFQAQRSQLVALLISGSLEGFESILDWLLSWDVLSREDYEGLSLPGQPLSHSARRLLDTVWNKGVWGCQKLLEAVQEAQANSHTFELYGSWDTHSLHPTRDLQSHRPAIVRRLYNHVEAMLELAREGGFLSQYECEEIRLPIFTSSQRARRLLDLAAVKANGLAAFLLQHVRELPAPLPLPYEAAECQKFISKLRTMVLTQSRFLSTYDGSENLCLEDIYTENILELQTEVGTAGALQKSPAILGLEDLFDTHGHLNRDADTILVVGEAGSGKSTLLQRLHLLWATGRSFQEFLFIFPFSCRQLQCVAKPLSLRTLLFEHCCWPDVAQDDVFQFLLDHPDRVLLTFDGLDEFKFRFTDRERHCSPIDPTSVQTLLFNLLQGNLLKNACKVLTSRPDAVSALLRKFVRTELQLKGFSEEGIQLYLRKHHREPGVADRLIQLIQATSALHGLCHLPVFSWMVSRCHRELLLQNRGFPTTSTDMYLLILQHFLLHASPPDSSPLGLGPGLLQSRLSTLLHLGHLALRGLAMSCYVFSAQQLQAAQVDSDDISLGFLVRAQSSVPGSKAPLEFLHITFQCFFAAFYLAVSADTSVASLKHLFSCGRLGSSLLGRLLPNLCIQGSRVKKGSEAALLQKAEPHNLQITAAFLAGLLSQQHRDLLAACQVSERVLLQRQARARSCLAHSLREHFHSIPPAVPGETKSMHAMPGFIWLIRSLYEMQEEQLAQEAVRRLDIGHLKLTFCRVGPAECAALAFVLQHLQRPVALQLDYNSVGDVGVEQLRPCLGVCTALYLRDNNISDRGARTLVECALRCEQLQKLALFNNKLTDACACSMAKLLAHKQNFLSLRVGNNHITAAGAEVLAQGLKSNTSLKFLGFWGNSVGDKGTQALAEVVADHQNLKWLSLVGNNIGSMGAEALALMLEKNKSLEELCLEENHICDEGVYSLAEGLKRNSTLKFLKLSNNGITYRGAEALLQALSRNSAILEVWLRGNTFSLEEIQTLSSRDARLLL
